Test results: patent US20120245092A1
Substitutions are numbered along the chain they refer to. These are yes or no findings as the source states them, for the method shown. Some results given as binding are weak or reduced against the parent protein; the word gives no strength. Where a sequence is shown, tags or fusion partners need not be part of it.

Columns and labels:
[1] = molecular target: CNA construct CNA3, two-hybrid prey (Homo sapiens (Human)) (UniProt P16298); experiment: yeast two-hybrid assay, higher sensitivity (FIG. 14)
[2] = molecular target: T1, NS5A-TP2 (two-hybrid prey) (human) (UniProt Q7Z4H3); experiment: as above
T1 sequence: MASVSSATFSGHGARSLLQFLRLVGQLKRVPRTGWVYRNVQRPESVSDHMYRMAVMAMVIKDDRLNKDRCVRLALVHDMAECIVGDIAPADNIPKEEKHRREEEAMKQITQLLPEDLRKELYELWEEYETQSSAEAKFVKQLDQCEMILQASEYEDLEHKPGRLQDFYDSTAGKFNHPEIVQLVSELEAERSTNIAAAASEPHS

[3] = molecular target: CNAγ C-terminal fragment (calcineurin A gamma clone selected from the testes cDNA library, two-hybrid prey) (human) (UniProt P48454); experiment: yeast two-hybrid screening against LexA-R5G42, testes cDNA library; the cell is the number of clones selected
[4] = molecular target: CNAβ C-terminal fragment (calcineurin A beta clone selected from the testes cDNA library, two-hybrid prey) (human) (UniProt P16298); experiment: as above
[5] = molecular target: T1, NS5A-TP2 (two-hybrid prey) (human); experiment: as above
[6] = molecular target: CNAγ C-terminal fragment (calcineurin A gamma clone selected from the testes cDNA library, two-hybrid prey) (human) (UniProt P48454); experiment: yeast two-hybrid screening of human testis cDNA library
[7] = molecular target: CNAβ C-terminal fragment (calcineurin A beta clone selected from the testes cDNA library, two-hybrid prey) (human) (UniProt P16298); experiment: as above
[8] = molecular target: T1, NS5A-TP2 (two-hybrid prey) (human); experiment: yeast two-hybrid screening against LexA-R5G42, brain cDNA library; the cell is the number of clones selected
[9] = molecular target: T1, NS5A-TP2 (two-hybrid prey) (human); experiment: yeast two-hybrid screening of human testis and foetal brain cDNA libraries
[10] = molecular target: CNAγ C-terminal fragment (calcineurin A gamma clone selected from the testes cDNA library, two-hybrid prey) (human) (UniProt P48454); experiment: yeast two-hybrid
[11] = molecular target: CNAβ C-terminal fragment (calcineurin A beta clone selected from the testes cDNA library, two-hybrid prey) (human) (UniProt P16298); experiment: yeast two-hybrid
[12] = molecular target: CNA construct CNA3, two-hybrid prey (Homo sapiens (Human)) (UniProt P16298); experiment: yeast two-hybrid assay (FIG. 14)
[13] = molecular target: T1, NS5A-TP2 (two-hybrid prey) (human); experiment: yeast two-hybrid assay (FIG. 14)
[14] = molecular target: CNAγ C-terminal fragment (calcineurin A gamma clone selected from the testes cDNA library, two-hybrid prey) (human) (UniProt P48454); experiment: yeast two-hybrid assay (FIG. 9)
[15] = molecular target: CNAβ C-terminal fragment (calcineurin A beta clone selected from the testes cDNA library, two-hybrid prey) (human) (UniProt P16298); experiment: yeast two-hybrid assay (FIG. 9)
[16] = molecular target: T1, NS5A-TP2 (two-hybrid prey) (human); experiment: yeast two-hybrid assay (FIG. 9)

Measured: binding

B1: LexA-R5G42 fusion protein (peptide aptamer R5G42 as two-hybrid bait) (designed binder, not shown: large carriers)
chain: MVKQIESKTAFQEALDAAGDKLVVVDFSATWCGPSAVTFAVCALGPCKMIKPFFHSLSEKYSNVIFLEVDVDDCQDVASECEVKCMPTFQFFKKGQKVGEFSGANKEKLEATINELV
not listed: [14] | [15] | [16]
binds: all other assays above

B2: R5G42 mutant C7 (LexA fusion, two-hybrid bait) (designed binder, not shown: small tags and cut ends)
chain: B1 chain with L22P
binds: [1] | [14] | [15] | [12]

B3: R5G42 mutant C2 (LexA fusion, two-hybrid bait) (designed binder, not shown: small tags and cut ends)
chain: B1 chain with P52L
binds: [1] | [14] | [15] | [12]

B4: R5G42 mutant N9 (LexA fusion, two-hybrid bait) (designed binder, not shown: small tags and cut ends)
chain: B1 chain with T30A
binds: [1] | [2] | [16] | [12] | [13]

B5: R5G42 mutant C8 (LexA fusion, two-hybrid bait) (designed binder, not shown: small tags and cut ends)
chain: B1 chain with F39I
binds: [1] | [14] | [15] | [12]
